{
  "sequences": {"note": "The chains behind the UniProt entries cited, without tags or fusion partners.", "UniProt P35462, whole entry, looked up": "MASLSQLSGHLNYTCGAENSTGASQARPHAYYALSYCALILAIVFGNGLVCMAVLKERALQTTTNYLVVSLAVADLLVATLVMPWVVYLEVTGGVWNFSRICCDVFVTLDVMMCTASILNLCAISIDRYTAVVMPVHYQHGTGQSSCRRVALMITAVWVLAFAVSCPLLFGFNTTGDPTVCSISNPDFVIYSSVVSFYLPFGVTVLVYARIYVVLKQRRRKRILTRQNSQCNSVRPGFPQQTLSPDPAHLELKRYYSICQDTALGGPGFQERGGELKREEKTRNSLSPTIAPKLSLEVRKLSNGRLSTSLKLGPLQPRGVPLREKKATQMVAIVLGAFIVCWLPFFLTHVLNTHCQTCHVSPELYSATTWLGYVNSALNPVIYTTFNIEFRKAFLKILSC"},
  "source": "PubChem BioAssay AID652054",
  "about": "(National Center for Advancing Translational Sciences (NCATS), 2013)",
  "note": "Hit rate of the full screen: of about 360,000 compounds, about 9,100 (2.5%) were called active. This list was built around the results that the source calls inconclusive (neither active nor inactive); the mix of calls is not that of the screen. No stated cut-off is given here; in the data, active means max response below about -50%; inconclusive means no clear call, values can overlap the other calls; inactive means above that. On the % scale 0 is the no-effect control and ±100 the full control effect.",
  "data": [
    {"molecular_target": "D(3) dopamine receptor (Homo sapiens) (UniProt P35462)", "assay": "qHTS of D3 Dopamine Receptor Antagonist: qHTS", "conditions": "D3R cells, DiscoveRx beta-arrestin luminescence, antagonist mode; stronger effect = lower value", "method_in_brief": "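Cells plated overnight at 1500 cells/well, then exposed to library compounds with dopamine controls for 90 minutes at 37 degrees C. DiscoveRx reagent added for 30–60 minutes at room temperature; luminescence read, quantitative HTS format.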", "values": [
      {"smiles": "CCN1CC2([N+](=O)[O-])C=CC(=O)C([N+](=O)[O-])(C1)C2CC(=O)c1ccccc1", "note": "(centres undefined)", "max response, negative = inhibition": "active: -67.8%"},
      {"smiles": "COc1cc(/C=C(\\C#N)c2nc3ccccc3s2)ccc1OCC(=O)Nc1ccccc1", "max response, negative = inhibition": "inactive: -25.5%"},
      {"smiles": "CCOc1ccccc1N(C)S(=O)(=O)c1ccc2c(c1)N(C(C)=O)CCO2", "max response, negative = inhibition": "inactive: -6.12%"},
      {"smiles": "O=C(N1CCCCCC1)N1CCN(S(=O)(=O)N2CCCCC2)CC1", "max response, negative = inhibition": "inconclusive: -33.8%"},
      {"smiles": "Cc1cc(/C=C2/C(=O)NN(c3ccccc3)C2=O)c(C)n1-c1cccc(O)c1", "max response, negative = inhibition": "inconclusive: -36.8%"},
      {"smiles": "CSc1ncccc1C(=O)NCCc1ccccc1F", "max response, negative = inhibition": "inconclusive: -37.3%"},
      {"smiles": "O=C(NNC(=O)c1ccc2ccccc2c1O)NC1CCCCC1", "max response, negative = inhibition": "inconclusive: -46.3%"},
      {"smiles": "Cc1ccc(C(=O)NCCN2C3=NC[C@H](Cc4ccc(O)cc4)N3C[C@H]2Cc2ccc(O)cc2)cc1Br", "max response, negative = inhibition": "inconclusive: -38.5%"},
      {"smiles": "N#Cc1ccc(COC(=O)C2CCC(=O)N2)cc1", "note": "(centres undefined)", "max response, negative = inhibition": "active: -51.9%"},
      {"smiles": "N#CC1=C(N)Oc2cc(O)c(C=Nc3ccccc3)cc2C1c1ccccc1", "note": "(centres undefined)", "max response, negative = inhibition": "inactive: 55.1%"},
      {"smiles": "CCOc1ccc(NC(=S)Nc2cc(-c3ccccc3)[nH]n2)cc1", "max response, negative = inhibition": "inconclusive: -43.5%"},
      {"smiles": "Cc1ccc(S(=O)(=O)N(C)c2ccc(OCC(=O)Nc3nnc(C4CC4)s3)cc2)cc1", "max response, negative = inhibition": "inconclusive: -32.6%"},
      {"smiles": "Cn1c(O)c(C2=c3ccccc3=NC2=O)sc1=Nc1ccc(Cl)cc1", "max response, negative = inhibition": "active: -63%"},
      {"smiles": "C[C@@H]1CN([C@@H](C)CO)S(=O)(=O)c2ccc(-c3ccc(C(=O)N(C)C)cc3)cc2O[C@@H]1CN(C)Cc1ccccc1C(=O)O", "max response, negative = inhibition": "inactive: 16.1%"},
      {"smiles": "C=CCN(CC=C)CCOc1cc(C)ccc1[N+](=O)[O-]", "max response, negative = inhibition": "inconclusive: -33.7%"},
      {"smiles": "O=C(NNC1=Nc2ccccc2SC1)c1ccc(F)cc1", "max response, negative = inhibition": "inconclusive: -36.4%"},
      {"smiles": "O=C(CN1C(=O)C(=O)c2ccccc21)NC1CCCCC1", "max response, negative = inhibition": "inconclusive: -38.9%"},
      {"smiles": "Cc1ccc(S(=O)(=O)N/N=C/c2cccc3nccnc23)cc1", "max response, negative = inhibition": "inactive: -1.62%"},
      {"smiles": "O=[N+]([O-])c1ccc(S(=O)(=O)CC(CN2CCCCC2)N2CCCCC2)cc1", "note": "(centres undefined)", "max response, negative = inhibition": "inconclusive: -31.8%"},
      {"smiles": "O=[N+]([O-])c1cc(Br)c(O)c(C=Nc2ccc(N3CCOCC3)cc2)c1", "max response, negative = inhibition": "inconclusive: -41.9%"},
      {"smiles": "COc1cc2[nH]c(=O)n(CCCCCC(=O)N3CC=C(c4ccccc4)CC3)c(=O)c2cc1OC", "max response, negative = inhibition": "inconclusive: -34.9%"},
      {"smiles": "COc1ccc(OC)c(/C=C/C(=O)Nc2ccc3c(c2)CCC3)c1", "max response, negative = inhibition": "inactive: -14.2%"},
      {"smiles": "CC1CCN(C(=O)C2CCCN(c3ncnc4c3nc3n4CCCCC3)C2)CC1", "note": "(centres undefined)", "max response, negative = inhibition": "inactive: 7.14%"},
      {"smiles": "CCOC(=O)c1[nH]c2ccc(OC)cc2c1NC(=O)CCN1CCc2ccccc2C1", "max response, negative = inhibition": "inconclusive: -41.1%"},
      {"smiles": "CCN1C(=O)/C(=C\\c2ccco2)C(C(=O)OC)=C1C", "max response, negative = inhibition": "inconclusive: -34.1%"},
      {"smiles": "O=C(O)CC/C(=N\\Nc1ccc(S(=O)(=O)N2CCOCC2)cc1[N+](=O)[O-])c1cccs1", "max response, negative = inhibition": "active: -62.5%"},
      {"smiles": "CCCCN1C(=O)C(=O)NC[C@@H]1Cc1ccc(O)cc1", "max response, negative = inhibition": "inconclusive: -32.6%"},
      {"smiles": "O=C(NCc1ccccc1)c1ccc(-c2ccccc2F)o1", "max response, negative = inhibition": "inconclusive: -42.1%"},
      {"smiles": "COc1ccc(OC)c(N(CC(=O)N2CCN(c3cc(Cl)ccc3C)CC2)S(C)(=O)=O)c1", "max response, negative = inhibition": "inconclusive: -37.7%"},
      {"smiles": "Cn1cccc1C(C#N)c1ncc(C(F)(F)F)cc1Cl", "note": "(centres undefined)", "max response, negative = inhibition": "inconclusive: -38%"},
      {"smiles": "Cn1c(=N)n(CC(=O)C(C)(C)C)c2ccccc21", "max response, negative = inhibition": "inconclusive: -49.9%"},
      {"smiles": "CC(C)(C)CC(=O)Nc1ccc(S(=O)(=O)N2CCCC2)cc1", "max response, negative = inhibition": "inconclusive: -35.4%"},
      {"smiles": "O=C(COc1ccccc1Cl)Nc1ccccc1C(=O)Nc1cccc(C(=O)O)c1", "max response, negative = inhibition": "inactive: 9.94%"},
      {"smiles": "O=C(NCc1ccco1)C1Cc2ccccc2CN1S(=O)(=O)c1ccccc1F", "note": "(centres undefined)", "max response, negative = inhibition": "inconclusive: -33.2%"},
      {"smiles": "O=[N+]([O-])c1cccc(CON=Cc2ccccc2O)c1", "max response, negative = inhibition": "inconclusive: -45.8%"},
      {"smiles": "Cc1cc(C(=O)OCC(=O)N2CC(C)OC(C)C2)c(C)n1-c1ccccc1", "note": "(centres undefined)", "max response, negative = inhibition": "inactive: 24.5%"},
      {"smiles": "COc1ccc(/C=N/N2CCN(Cc3ccc(C)cc3)CC2)cc1Br", "max response, negative = inhibition": "active: -91.7%"},
      {"smiles": "NNC(=S)Nc1ccc(OC(F)(F)F)cc1", "max response, negative = inhibition": "inconclusive: -34%"},
      {"smiles": "Cc1sc(NC(=O)c2ccco2)c(C(c2cccnc2)N2CCN(c3ccc(F)cc3)CC2)c1C", "note": "(centres undefined)", "max response, negative = inhibition": "inconclusive: -33.4%"},
      {"smiles": "CCOc1ccc(OCC(=O)OCC(=O)NNC(=O)c2ccc([N+](=O)[O-])cc2)cc1", "max response, negative = inhibition": "inconclusive: -48.2%"},
      {"smiles": "Cc1cc(=O)[nH]c(SCC(=O)Nc2cccc(C(F)(F)F)c2)n1", "max response, negative = inhibition": "inactive: -21.9%"},
      {"smiles": "CCOC(=O)N1CCN=C1SCc1ccc(Cl)c(Cl)c1", "max response, negative = inhibition": "inconclusive: -36.4%"},
      {"smiles": "C=C[C@]1(C)C[C@@H](OC(=O)CSCCN(CC)CC)[C@]2(C)C(C)CC[C@]3(CCC(=O)[C@H]32)[C@@H](C)[C@@H]1O", "note": "(some centres undefined)", "max response, negative = inhibition": "inconclusive: -33.9%"},
      {"smiles": "Cc1cccc(-n2c(SCC(=O)NCc3ccc4c(c3)OCO4)nc3ccccc3c2=O)c1", "max response, negative = inhibition": "inactive: 9.38%"},
      {"smiles": "CCn1c(=S)[nH]c2sc3c(c2c1=O)CCCC3", "max response, negative = inhibition": "inconclusive: -40.5%"},
      {"smiles": "CCOc1ccc(NC(=O)c2ccc(N3CC4CC(C3)c3cccc(=O)n3C4)c(NC(=O)c3ccncc3)c2)cc1", "note": "(centres undefined)", "max response, negative = inhibition": "inactive: 6.24%"},
      {"smiles": "O=S(=O)(CCSc1ccccn1)c1nc2ccccc2s1", "max response, negative = inhibition": "inconclusive: -34.4%"},
      {"smiles": "O=C(N/C=C/c1ccccc1)c1ccccc1", "max response, negative = inhibition": "inconclusive: -32%"},
      {"smiles": "CC1CCCN(C(=O)C2CCN(CC3CC=CCC3)CC2)C1", "note": "(centres undefined)", "max response, negative = inhibition": "inconclusive: -30.1%"},
      {"smiles": "O=C(CSc1nnc(-c2ccco2)o1)NCC(=O)c1ccccc1", "max response, negative = inhibition": "inconclusive: -41.1%"},
      {"smiles": "O=C(NC(c1ccc(F)cc1)c1ccc2ccccc2n1)C1CCN(Cc2ccc3ccccc3n2)CC1", "note": "(centres undefined)", "max response, negative = inhibition": "active: -53%"},
      {"smiles": "Cc1cccc(N2CCN(C(C)C(=O)N3CCc4ccccc43)CC2)c1C", "note": "(centres undefined)", "max response, negative = inhibition": "inconclusive: -49.6%"},
      {"smiles": "CC(=O)Nc1cccc(-c2csc(C(O)c3ccccc3)n2)c1", "note": "(centres undefined)", "max response, negative = inhibition": "inconclusive: -30.9%"},
      {"smiles": "CCC1CCc2sc(C(=O)NCC(c3ccc(OC)cc3)N3CCCC3)cc2C1", "note": "(centres undefined)", "max response, negative = inhibition": "active: -88.6%"}
    ]}
  ]
}
